At least one structure is not confirmed: it was looked up by name or label, or the drawing left a doubt.
System: OVA-induced airway inflammation
Assay: Ovalbumin (OVA)-induced pulmonary inflammation in mice
Type: in vivo, Balb/c mice
Description: A compound of the present invention is tested in an OVA-induced pulmonary inflammation model in mice essentially as described in a method reported in the literature (Muriel Pichavant, Sho Goya, Eckard Hamelmann, Erwin W. Gelfand, and Dale T. Umetsu. Animal Models of Airway Sensitization. Current Protocols in Immunology. (1999) 15.18.1-15.18.13). Briefly, female Balb/c mice weighing from 18 to 20 g are sensitized by introperitoneal injection of 100 μL of saline containing 20 μg of OVA and 2 mg of aluminum hydroxide on day 1 and 14. On days 28, 29 and 30, mice are challenged once each by aerosolizing 1% ovalbumin (OVA) in phosphate buffered saline (PBS) for 20 minutes with Buxco Mass Dosing System. […] On day 32, animals from each group are anesthetized with 1% of pentobarbital sodium. The thoracic and abdominal cavities are opened and plasma is collected from centrifuged specimens. The trachea is then dissected and transected. Through the insertion of an 18-gauge catheter into the trachea, the lungs are lavaged with a total of 1.5 mL of sterile PBS and then placed into a specimen container. Cell-free BAL supernatants are obtained by centrifugation of BAL fluids. All serum and BAL supernatants are stored at −80° C. until use. Differential cell counts are performed on cytospin preparations of BAL cells for cell counting and cytokine determination. […]

In the case of `C[C@@H]1C[C@H]2[C@@H]3CCC4=CC(=O)C=C[C@]4(C)[C@@]3(F)[C@@H](O)C[C@]2(C)[C@@]1(O)C(=O)CO` [Dexamethasone, reference compound], the “increase of eosinophil cell numbers in BALF” value (dexamethasone 1 mg/kg (qd)) is reported as “completely inhibits” and the “lung histology, hematoxylin and eosin stains” value (dexamethasone at 1 mg/kg) is reported as “improvement in pulmonary inflammation”.
